The whole screen tested about 220,000 compounds, of which about 2,400 (1.1%) were called active. Inconclusive results, whose numbers are uncertain, are shown with a selection of clear calls. Calls follow the shape of the dose curve; as a rule, active = well fitted inhibition curve with a large enough effect; inconclusive = small, poorly fitted or top-dose-only effect, or effect the other way; inactive = no such curve, though single readings can be large or run the other way. A potency beside an inconclusive call is a rough fit, not a confirmed value.
Test: qHTS Multiplex Assay to Identify Dual Action Probes in a Cell Model of Huntington: Aggregate Formation (GFP); also: nearly all actives have a fitted effect of over 60% in size
Conditions: PC12 HttQ103-GFP aggregates, Acumen cytometry, 40 h; activity change, negative = inhibition: at 46.1 µM (top of the series) unless noted
Summary of the method: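 Aggregate formation scored by laser-scanning cytometer (488 excitation, 500–530 emission) in lysed PC12 cells expressing Q103-GFP after 100 nM tebufenozide induction; library tested in dose series, with ATPLite reagent added in the multiplex.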
% is scaled to controls: 0 for no effect and ±100 for the full control effect; potency is read from the fitted curve at half-maximal effect.

Row | SMILES | Potency | activity change, negative = inhibition
1 | O=C(/C=C/c1cccc([N+](=O)[O-])c1)Nc1cccc(NC(=O)c2cccs2)c1 | inconclusive: 11.2 µM [inhibitor, partial curve] | –
2 | O=C(NCCc1ccccn1)c1ccc(NS(=O)(=O)c2ccc(F)cc2)cc1 | inconclusive: 3.55 µM [activator, partial curve] | –
3 | CC1CCCCN1C(=O)CSc1nc(C2CC2)nc2c1cnn2-c1ccccc1 (stereo not drawn) | inconclusive: 14.1 µM [inhibitor, single point] | –
4 | O=c1cc(O)c(-c2ccccc2)c(Cl)[nH]1 | inconclusive: 0.891 µM [inhibitor, full curve] | –
5 | Cc1ccc(C(C(=O)NCc2ccccc2)N(Cc2cccs2)C(=O)c2ccc3c(c2)OCCO3)cc1 (stereo not drawn) | inconclusive: 35.5 µM [inhibitor, single point] | –
6 | NN/C(=C\[N+](=O)[O-])Nc1ccc(Cl)cc1 | – | inactive: -0.443% [at 9.22 µM]
7 | CN(CC(=O)NCc1ccc(F)cc1)S(=O)(=O)c1cccc2nsnc12 | inconclusive: 1.26 µM [inhibitor, single point] | –
8 | COc1ccc2c(c1)CCc1cnc(N)nc1-2 | inconclusive: 20 µM [inhibitor, partial curve] | –
9 | C/C(=N\NC(=O)CN(c1ccccc1)S(C)(=O)=O)c1ccccc1O | inconclusive: 25.1 µM [inhibitor, single point] | –
10 | Cc1cccc(C)c1NC(=O)N1CC=C(n2c(=O)[nH]c3ccccc32)CC1 | inconclusive: 22.4 µM [inhibitor, single point] | –
11 | Cc1ccc2nc(NC(=O)C3=NN(c4ccccc4)C(=O)CC3)sc2c1 | inconclusive: 3.16 µM [inhibitor, single point] | –
12 | O=C(O)/C=C/c1coc2ccc(F)cc2c1=O | inconclusive: 20 µM [activator, single point] | –
13 | O=C(c1ccc(Cl)c(S(=O)(=O)N2CCCCCC2)c1)N1CCN(CCO)CC1 | inconclusive: 0.631 µM [inhibitor, full curve, poor fit] | –
14 | Cc1ccc(N(C(C)C(=O)Nc2cc(Cl)ccc2Oc2ccccc2)S(C)(=O)=O)cc1 (stereo not drawn) | inconclusive: 14.1 µM [inhibitor, single point] | –
15 | Cc1noc(C)c1CSc1nnc(-c2ccccc2)n1Cc1ccco1 | inconclusive: 10 µM [activator, partial curve] | –
16 | O=C(Cc1ccccc1)Nc1cccc(N2C(=O)C=CC2=O)c1 | inconclusive: 35.5 µM [inhibitor, single point] | –
17 | COCCSc1ccccc1C(=O)NCc1ccco1 | – | inactive: 22.9%
18 | Cc1ccc(S(=O)(=O)N2CCOCC2)cc1NC(=O)c1cc2c(s1)CCC2 | – | inactive: -23.5%
19 | CCC1CCCCN1CCCNC(=O)c1cc2c(=O)[nH]c3ccccc3c2n1C (stereo not drawn) | inconclusive: 35.5 µM [inhibitor, single point] | –
20 | O=C(NC(=S)Nc1ccc2c(c1)C(=O)c1ccccc1C2=O)c1ccc(F)cc1 | inconclusive: 0.794 µM [inhibitor, partial curve] | –
21 | Cc1noc(C)c1S(=O)(=O)Nc1ccc(C(=O)N2CCN(c3ccc(Cl)cc3)CC2)cc1 | inconclusive: 11.2 µM [inhibitor, single point] | –
22 | CCCN1C(=O)/C(=C/c2ccc(C)o2)SC1=Nc1ccc(OCC)cc1 | – | inactive: 28%

Three entries out of the list, ordered by SMILES length, rising:
Row | SMILES | Potency | activity change, negative = inhibition
15 | Cc1noc(C)c1CSc1nnc(-c2ccccc2)n1Cc1ccco1 | inconclusive: 10 µM [activator, partial curve] | –
9 | C/C(=N\NC(=O)CN(c1ccccc1)S(C)(=O)=O)c1ccccc1O | inconclusive: 25.1 µM [inhibitor, single point] | –
2 | O=C(NCCc1ccccn1)c1ccc(NS(=O)(=O)c2ccc(F)cc2)cc1 | inconclusive: 3.55 µM [activator, partial curve] | –

Further compounds:

Row | SMILES | Potency | activity change, negative = inhibition
23 | O=c1c(-c2ccc3c(c2)OCCO3)c(C(F)(F)F)oc2cc(O)cc(O)c12 | inconclusive: 3.16 µM [inhibitor, partial curve] | –
24 | O=C(CCS(=O)(=O)c1ccc(Cl)cc1)N1CCN(c2ccccc2F)CC1 | inconclusive: 17.8 µM [inhibitor, single point] | –
25 | CC(C)Cn1c(N)c(C(=O)CCl)c(=O)n(C)c1=O | inconclusive: 28.2 µM [inhibitor, single point] | –
26 | C=CCN=c1scc(-c2ccccc2)n1/N=C/c1ccccn1 | inconclusive: 22.4 µM [inhibitor, single point] | –
27 | Cn1c(-[n+]2c(-c3ccccc3)cc(-c3ccccc3)cc2-c2ccccc2)nc2c([N+](=O)[O-])cccc21 | inconclusive: 17.8 µM [inhibitor, single point] | –
28 | NC(=O)CSc1nc2scc(-c3ccc(Cl)cc3)c2c(=O)n1Cc1ccccc1 | inconclusive: 5.62 µM [inhibitor, single point] | –
29 | O=C(O)c1cc(Br)ccn1 | – | inactive: -7.71%
30 | CCN(CC1COc2ccccc2O1)C(=S)NC1CC2CCC1C2 (stereo not drawn) | inconclusive: 11.2 µM [inhibitor, single point] | –
31 | CCCc1cc(NCC2CCCO2)n2c(nc3ccccc32)c1C#N (stereo not drawn) | inconclusive: 0.631 µM [inhibitor, full curve] | –
32 | Cc1ccc(S(=O)(=O)N2CCOCC2)cc1C(=O)Nc1ccc(S(=O)(=O)Nc2nccs2)cc1 | – | inactive: 32.1%
33 | Cc1ccc(N/C(N)=N/c2nc(C)cc(N3CCCCC3)n2)c(C)c1 | active: 12.6 µM | –
34 | Cc1c(C(=O)N2CCCC2)sc(NC(=O)c2cccs2)c1C#N | inconclusive: 3.55 µM [inhibitor, single point] | –
35 | CCN(C(=O)c1cc2ccccc2oc1=O)c1cccc(C)c1 | – | inactive: 1.05%
36 | Cc1ccccc1[C@@H]1C(C#N)=C(N)S[C@H]1C(=O)c1ccccc1 | inconclusive: 11.2 µM [inhibitor, single point] | –
37 | CCOc1ccc(-c2nn[nH]n2)cc1 | – | inactive: -10.6%
38 | CCN(CC)C(=O)c1ccc(S(=O)(=O)NCc2cccnc2)cc1 | active: 11.2 µM | –
39 | S=C(NCc1ccccc1)NCc1ccc2c(c1)OCO2 | – | inactive: 12%
40 | COc1ccc2[nH]c(C)c(CCNC(=S)Nc3ccccc3C)c2c1 | inconclusive: 1.41 µM [activator, partial curve, poor fit] | –
41 | CCOC(=O)c1ccc(NC(=O)c2c(C)[nH]c(C(=O)OCC)c2C)cc1 | inconclusive: 2.82 µM [activator, single point] | –
42 | COc1ccc(NC2c3ncccc3C(=O)N2Cc2ccccc2)c(OC)c1 (stereo not drawn) | – | inactive: 3.47%
43 | C=CCNC(=O)/C(C#N)=C/c1c(N(Cc2ccccc2)Cc2ccccc2)nc2ccccn2c1=O | inconclusive: 35.5 µM [inhibitor, single point] | –

Reference: PubChem BioAssay AID1688 (National Center for Advancing Translational Sciences (NCATS), 2009)
